According to PubChem BioAssay AID504444 (National Center for Advancing Translational Sciences (NCATS), 2011):
Among all 360,000 compounds or so, about 7,500 (2.1%) were called active. This list was built around the results that the source calls inconclusive (neither active nor inactive); the mix of calls is not that of the screen. Calls come from the whole dose curve; as a rule, active = well fitted inhibition curve with a large enough effect; inconclusive = small, poorly fitted or top-dose-only effect, or effect the other way; inactive = flat fitted curve, though single readings scatter. Potencies of inconclusive entries are doubtful fits and often do not repeat.

experiment: Nrf2 qHTS screen for inhibitors; conditions: A549 ARE-Fluc reporter, luciferase luminescence, 18-24 h; series mostly up to 46 µM; note: nearly all actives have a fitted effect of over 60% in size
In short: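 Concentration-response testing used A549 ARE_Fluc cells at 5000 cells/well. Following an 18-24 h compound incubation, viability was read by fluorescence (Ex 405/Em 525) and luciferase output by luminescence.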
Potency is the fitted concentration of half-maximal effect.

SMILES | Potency
COC(=O)c1ccc(NC(=S)Nc2ccc3ccccc3c2)cc1 | inconclusive: 4.11 µM [activator, full curve, poor fit]
CCc1ccc(C)[n+](CC(=O)c2cccs2)c1 | inconclusive: 23.1 µM [activator, partial curve, poor fit]
COc1cc(C2C3=C(CC(C)(C)CC3=O)Nc3c2c(=O)[nH]c(=O)n3Cc2ccccc2)ccc1O (stereo unspecified) | inconclusive: 1.3 µM [falling, partial curve, poor fit]
Nc1ccc2nc(NC(=O)C3CCCCC3)sc2c1 | inconclusive: 2.59 µM [activator, full curve, poor fit]
CSc1ncccc1C(=O)Nc1ccccc1N1CCOCC1 | inactive
Cn1cc(C(=O)Nc2ccccn2)c(=O)c2ccccc21 | inconclusive: 5.8 µM [activator, full curve]
CS(=O)(=O)N(Cc1ccccc1)c1ccc(C(=O)N2CCc3ccccc3C2)cc1 | inconclusive: 29.1 µM [falling, single point]
CCC(C)C1Nc2ccc(C(=O)NCCc3ccc(OC)c(OC)c3)cc2NC1=O (stereo unspecified) | inconclusive: 18.4 µM [falling, partial curve]
Cc1ccc(C2=NNC3(CCOC(C)(C)C3)S2)cc1 (stereo unspecified) | inconclusive: 29.1 µM [activator, single point]
CCCCOc1cccc(C(=O)NNC(=S)NC2CCCCC2)c1 | inconclusive: 20.6 µM [falling, single point]
COc1ccc2c(c1)c1c(c(=O)n(-c3cccc(C)c3)c(=O)n1CC(=O)NCc1ccc(C)cc1)n2C | inconclusive: 8.2 µM [activator, partial curve, poor fit]
COc1cc2nc(CSc3nc(-c4ccc(F)cc4)cs3)[nH]c(=O)c2cc1OC | inconclusive: 20.6 µM [falling, partial curve, poor fit]
COc1ccc(-c2cc(C(=O)NCCc3ccccc3)c3c(-c4ccc(Cl)cc4)[nH]nc3n2)cc1 | active: 23.1 µM
COc1ccc(CNC(=O)c2cccn2-c2nnc(N3CCCCC3)s2)c(OC)c1 | inconclusive: 18.4 µM [activator, single point]
CC(C(=O)Nc1cccnc1)C1Sc2ccccc2NC1=O (stereo unspecified) | inconclusive: 23.1 µM [activator, partial curve, poor fit]
COC(=O)c1cc(=O)n(CCc2ccccc2F)c(=Nc2ccc(F)c(Cl)c2)s1 | inconclusive: 3.66 µM [falling, partial curve, poor fit]
Cc1ccc(CSc2nc3ccncc3n2Cc2nc(-c3ccccc3C)oc2C)cc1 | inactive
Cc1ccccc1C(=O)N1CCC2CC1c1cc(-c3ccc(F)cc3)ccc12 (stereo unspecified) | inconclusive: 23.1 µM [falling, single point]
O=C(CCS(=O)(=O)c1cc(Br)cc2c1N(C(=O)C1CC1)CC2)N1CCN(c2cccc(C(F)(F)F)c2)CC1 | inconclusive: 32.6 µM [falling, single point]
CCc1nnc(N2C(=O)c3cccc4cccc(c34)C2=O)s1 | inactive
CC(Oc1ccccc1F)C(=O)NNC(=O)CCNC(=O)c1ccccc1Cl (stereo unspecified) | inactive

SMILES | Potency
O=C(N/N=C/c1cccs1)c1[nH]ncc1Br | inconclusive: 13 µM [activator, partial curve]
O=C(CCc1ccccc1)Nc1ccc(N2CCCCC2)cc1 | inconclusive: 11.6 µM [activator, partial curve]
Cc1ccc(Nc2nc(C)cc(C)c2C(N)=O)cc1 | inconclusive: 23.1 µM [activator, single point]
O=S(=O)(Nc1ccc(-c2ccc(NS(=O)(=O)c3ccccc3)cc2)cc1)c1ccccc1 | inconclusive: 1.46 µM [falling, partial curve, poor fit]
CCc1ccc(Nc2ncnc3nc[nH]c23)cc1 | inconclusive: 3.26 µM [activator, full curve]
CN(C)S(=O)(=O)c1cccc(NC(=O)c2ccc(N3CCOCC3)c([N+](=O)[O-])c2)c1 | inconclusive: 23.1 µM [falling, partial curve, poor fit]
N#C/C(=C\c1cccnc1)c1ccccn1 | inactive
COCCCNc1nc(SCc2ccccc2)nc2sc3c(c12)CCC3 | inconclusive: 0.0041 µM [falling, full curve, poor fit]
Oc1ccc(Oc2ccccc2F)c2cccnc12 | inactive
COc1ccc2sc(N(CCCN(C)C)C(=O)c3ccc(S(=O)(=O)N4CCCC4)cc3)nc2c1 | inconclusive: 5.17 µM [falling, single point]
c1cncc(CN=C2Nc3ccccc3CS2)c1 | inconclusive: 5.8 µM [activator, partial curve]
CCc1cccc(NS(=O)(=O)c2ccc3c(c2)N(CC(=O)OC)C(=O)CS3)c1 | inconclusive: 5.8 µM [falling, partial curve]
CCCc1nc2ccc(NC(=O)c3ccco3)cc2c(=O)n1Cc1ccc(Cl)cc1 | inconclusive: 14.6 µM [falling, single point]
COc1ccccc1N1CCN(C(=O)CNS(=O)(=O)c2ccc(Br)s2)CC1 | inconclusive: 32.6 µM [falling, single point]
Cc1ccc(-n2cnc3sc(C)c(C)c3c2=O)cc1 | inconclusive: 16.4 µM [activator, partial curve]
CCOCC(=O)Nc1ccc(C)c(Cl)c1 | inconclusive: 29.1 µM [activator, single point]
C[C@H](CO)N1C[C@H](C)[C@@H](CN(C)Cc2ccncc2)Oc2c(cccc2N(C)C)C1=O | inconclusive: 6.51 µM [falling, partial curve, poor fit]
C/C(=N\Nc1nc(C)cc(-c2ccccc2)n1)c1ccc(O)cc1 | inconclusive: 18.4 µM [falling, single point]
CCn1c(Cc2c(C)[nH]c3ccccc23)nnc1SCC(N)=O | inconclusive: 2.06 µM [falling, partial curve, poor fit]
CC1=CC(=C(C#N)C#N)C=C(C)N1CCN1CCN(C(=O)Nc2cccc(Cl)c2)CC1 | inconclusive: 2.91 µM [falling, full curve]

Retrieved by structure from the entries so far (two):
SMILES | Potency
C/C(=N\Nc1nc(C)cc(-c2ccccc2)n1)c1ccc(O)cc1 | inconclusive: 18.4 µM [falling, single point]
O=S(=O)(Nc1ccc(-c2ccc(NS(=O)(=O)c3ccccc3)cc2)cc1)c1ccccc1 | inconclusive: 1.46 µM [falling, partial curve, poor fit]
